Assay results reported in PubChem BioAssay AID1347069 (National Center for Advancing Translational Sciences (NCATS), 2019).
Out of some 44,000 compounds screened, fewer than 10 were called active. This list was built around the results that the source calls inconclusive (neither active nor inactive); the mix of calls is not that of the screen. Calls come from the whole dose curve; as a rule, active = well fitted inhibition curve with a large enough effect; inconclusive = small, poorly fitted or top-dose-only effect; inactive = flat fitted curve, though single readings scatter. Where the call is inconclusive, the potency comes from a doubtful curve fit.

The chains behind the UniProt entries cited, without tags or fusion partners. Where a name states a change or a piece, a line headed by the entry shows the natural chain unless it says otherwise.
UniProt Q99816: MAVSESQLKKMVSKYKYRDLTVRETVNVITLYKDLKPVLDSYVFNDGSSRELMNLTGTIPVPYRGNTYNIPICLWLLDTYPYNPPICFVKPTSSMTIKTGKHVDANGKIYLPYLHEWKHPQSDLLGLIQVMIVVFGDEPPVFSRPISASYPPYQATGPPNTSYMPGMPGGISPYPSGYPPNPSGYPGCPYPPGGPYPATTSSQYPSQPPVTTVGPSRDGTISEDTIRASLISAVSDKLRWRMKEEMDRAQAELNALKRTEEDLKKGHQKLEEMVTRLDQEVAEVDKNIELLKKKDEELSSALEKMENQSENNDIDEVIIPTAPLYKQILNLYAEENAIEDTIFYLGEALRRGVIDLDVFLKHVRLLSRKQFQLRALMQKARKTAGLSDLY

Target: Tumor susceptibility gene 101 protein (Homo sapiens) (UniProt Q99816)
Test: qHTS Validation Assay for Inhibitors of HIV-1 Budding by Blocking the Interaction of PTAP/TSG101: Sytravon Library Screen
Conditions: Fluorescence polarization, FITC-PTAP peptide/Tsg101, 20 min; series mostly up to 115 µM
From the text: Stages of the HIV-1 replication cycle, specifically virus assembly and release, provide underexploited targets for the development of novel antiviral inhibitors. The late stages of HIV-1 replication are mediated by the Gag precursor protein, Pr55Gag. Expression of Pr55Gag is both necessary and sufficient for the production of virus-like particles from Gag-expressing cells. The Gag protein hijacks key host proteins involved in endocytic machinery of the host cell to promote endosomal processing and viral budding. The budding process requires a direct interaction between a […] (PTAP) motif in the p6 domain of Gag and the cellular endosomal sorting protein known as Tsg101. In this way, the Gag PTAP motif promotes the host cells to recruit viral particles to the plasma membrane where the new viral particles are released, effectively turning the host cells into viral factories. A fluorescence polarization assay has been developed to quantitatively measure the PTAP-Tsg101 interaction which can be used to screen for inhibitors of this interaction. This assay was run against the NCGC Sytravon Library collection. NIH Molecular Libraries Probe Production Network [MLPCN] NIH Chemical Genomics Center [NCGC] Grant: R03 MH087464-01A1 PI Name: Dr. Eric Freed, NCI
Two uL of the Tsg101 binding domain in buffer (10 mM HEPES pH 7.5; 0.15 M NaCl, 0.01% Tween 20; 3 mM EDTA;0.1 mM TCEP) was dispensed into Greiner black MB 1536-well plates (final concentration 10 uM). Then, 23 nL of compounds or DMSO were delivered to each well using a pin tool. Finally, 2 uL of a FITC-labeled peptide containing the PTAP motif (1) in the same buffer was dispensed (50 nM final concentration) and the binding was allowed to proceed for 20 min. at r.t. Fluorescent polarization was determined using FITC excitation and polarized emission filters on a Perkin Elmer Envision. Assay cut-off (positive/negative criteria): Actives defined by CRC class, <25 µM; Efficacy <60% inhibition. The total fluorescent intensity from S and P channels will be used to flag fluorescent compounds.
Potency is the fitted concentration of half-maximal effect.

Compound | Potency
CC(=O)N1CCc2nc3sc(C(=O)c4ccc(F)cc4)c(N)c3c(C(F)(F)F)c2C1 | inconclusive: 89.1 µM [inhibitor, single point]
CCOC(=O)c1ccc(NC(=O)CSc2nc(-c3cccs3)cc(C(F)(F)F)c2C#N)cc1 | inconclusive: 31.6 µM [inhibitor, partial curve]
CCOc1ccc(NC(=O)N(Cc2ccc(CC)cc2)Cc2cn[nH]c2-c2ccc(OC)cc2)cc1 | inactive
O=S(=O)(Nc1nc2n(n1)C(c1ccccc1)C=C(c1ccc(Cl)cc1)N2)c1ccccc1 (stereo not given) | inconclusive: 56.2 µM [inhibitor, partial curve]
COc1ccccc1N=c1scc(-c2ccc(S(=O)(=O)N3CCCC3)cc2)n1C | inactive
Cc1cc(NS(=O)(=O)c2ccc(NC(=O)COc3c(C)cc(Br)cc3C)cc2)no1 | inconclusive: 39.8 µM [inhibitor, partial curve]
CCn1cc(C(=O)N2CCN(c3cccc(C)c3C)CC2)c2cc(OC)c(OC)cc2c1=O | inconclusive: 89.1 µM [inhibitor, partial curve]
COc1ccc(C(=O)c2sc3nc(-c4ccc(F)cc4)ccc3c2N)cc1 | inactive
COc1ccc(OC)c(/C=C(\C#N)c2nc(-c3ccc(F)cc3)cs2)c1 | inconclusive: 50.1 µM [inhibitor, partial curve]
CCc1ccc(S(=O)(=O)Nc2cccc(-c3ccc(N4CCC(C)CC4)nn3)c2)s1 | inactive
